Data from PubChem BioAssay AID2685 (National Center for Advancing Translational Sciences (NCATS), 2010).
This is one part of the list. The main result of the screen is listed elsewhere. These columns were measured beside it and carry no call. The list favours compounds with an active or inconclusive main result. The note in brackets gives the kind of curve behind each potency; many fits are weak. Where a SMILES comes first, the peptide text is derived from it. The star is where a group is joined. Boc = CC(C)(C)OC(=O)*; Bn = c1ccc(C*)cc1

Assay: qHTS Assay for Lipid Storage Modulators in Drosophila S3 Cells;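 for cell number change: cells counted by Cell Tracker Red CMTPX staining in the red channel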
Settings: BODIPY lipid droplet fluorescence, 18-24 h; for cell number change: measured here: cell count max response, cells fed with added oleic acid
Method in brief: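 Laser-scanning cytometry quantifies lipid droplet accumulation (500–530 nm total intensity; droplet/cell object ratio) in oleic acid-fed (400 uM added) Drosophila S3 cells treated with a concentration series. 20 uM Triacsin C defined 100% inhibition.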

[1] = measured here: cell number channel AC50, cells fed with added oleic acid
[2] = measured here: lipid fluorescence (Fed channel) AC50, cells fed with added oleic acid

Row | SMILES | AC50 [1] | AC50 [2] | cell number change [%]
1 | COc1cc(/C=N/NC(=O)C(=O)NCC2CCCO2)ccc1OCC(=O)N1CCOCC1 (stereo not drawn) | 6.51 µM [rising, single point] | 0.58 µM [rising, single point] | –
2 | CCOc1ccc(C(C)C)cc1S(=O)(=O)N1CCOCC1 | – | 1.3 µM [rising, full curve, poor fit] | 24.4
3 | Cc1cccc(OC(C)C(=O)Nc2cc(S(=O)(=O)N3CCCCC3)ccc2C)c1 (stereo not drawn) | – | 11.6 µM [falling, partial curve, poor fit] | -23.2
4 | O=C(Nc1cccc(S(=O)(=O)Nc2ccccc2F)c1)c1ccc2ccccc2n1 | 0.00461 µM [rising, full curve, poor fit] | – | 11.6
5 | CC1CCN(C(=O)COC(=O)CCCN2C(=O)c3cccc4cccc(c34)C2=O)CC1 | – | 0.58 µM [rising, single point] | -24.9
6 | CCC1CCCCN1CCCNC(=O)Cn1ncn2nc(-c3ccc(OC)cc3)cc2c1=O (stereo not drawn) | – | – | 15.1
7 | CN(Cc1ccccc1)C(=O)c1ccccc1NC(=O)C1=CSCCO1 | – | 29.1 µM [rising, single point] | -13.5
8 | CCn1c(C)nc2cc(C(=O)N/N=C/c3cccc(O)c3O)ccc21 | – | 29.1 µM [falling, single point] | -28.2
9 | O=C(NCCN1CCN(c2cccc(Cl)c2)CC1)Nc1ccccc1 | – | – | 12.5
10 | Cc1ccc(OCC(=O)N2N=C(c3ccncc3)CC2(O)C(F)(F)F)cc1C (stereo not drawn) | 1.03 µM [rising, partial curve] | 0.231 µM [rising, full curve] | 23.4
11 | O=C(CNC(=O)c1ccco1)OCC(=O)c1ccccc1 | – | – | -49.6
12 | COc1ccc(OCCCc2c(C)n[nH]c2C)cc1 | – | – | -34.5
13 | CN(C)c1ccc(C2CC(c3cccc(NS(C)(=O)=O)c3)=NN2C(=O)c2ccccc2)cc1 (stereo not drawn) | – | 0.259 µM [rising, partial curve, poor fit] | -7.58
14 | CC(C)(C)c1ccc(C(=O)N/N=C/c2cccc(Cl)c2)cc1 | 1.46 µM [rising, full curve] | 0.731 µM [rising, full curve] | –
15 | CC(C)COc1cccc(C(=O)N2CCN(C(=O)c3ccco3)CC2)c1 | 18.4 µM [falling, single point] | – | -38.1
16 | CC1(C)C=Cc2c(c3ccccc3[nH]c2=O)O1 | – | 1.84 µM [rising, single point] | -21.2
17 | CCOC(=O)N1CCC(N2Cc3cccc(C(=O)Nc4c(C)cccc4CC)c3C2=O)CC1 | – | 16.4 µM [falling, partial curve] | 6.45
18 | Cc1ccc(C)c(NC(=O)C(NCC(C)(C)N2CCOCC2)c2ccccc2)c1 (stereo not drawn) | – | 29.1 µM [falling, single point] | -21.6
19 | COc1cc(NC(=O)C2CC(=O)NC3=C2C(=O)CC(C)(C)C3)c(OC)cc1Cl (stereo not drawn) | – | – | 4.89
20 | Cc1nc2nc(-c3ccccc3)cc(=O)n2[nH]1 | – | 0.517 µM [falling, full curve, poor fit] | 2.16

Part of the list above in order of molecular weight, low to high:
Row | SMILES | AC50 [1] | AC50 [2] | cell number change [%]
20 | Cc1nc2nc(-c3ccccc3)cc(=O)n2[nH]1 | – | 0.517 µM [falling, full curve, poor fit] | 2.16
8 | CCn1c(C)nc2cc(C(=O)N/N=C/c3cccc(O)c3O)ccc21 | – | 29.1 µM [falling, single point] | -28.2
19 | COc1cc(NC(=O)C2CC(=O)NC3=C2C(=O)CC(C)(C)C3)c(OC)cc1Cl (stereo not drawn) | – | – | 4.89

(listing goes on)

Row | SMILES | AC50 [1] | AC50 [2] | cell number change [%]
21 | O=C(NC1CCCC1)C(c1ccncc1)N(C(=O)c1csnn1)c1ccc(F)cc1 (stereo not drawn) | – | – | -21
22 | COc1ccc(OC)c2sc(NC(=O)C(C)C)nc12 | – | 6.51 µM [rising, single point] | –
23 | COC(=O)c1ccc(NC(=O)CSc2nc3ncccc3[nH]2)cc1 | 2.91 µM [rising, partial curve] | 23.1 µM [falling, single point] | -44.3
24 | C=CCOc1c(CNc2ccc(C(=O)O)cc2)cccc1OC | – | – | -8.83
25 | Cc1ccccc1C(=O)N1CCC(C(=O)NC2CCCCC2)CC1 | – | 35.5 µM [rising, single point] | -3.95
26 | N#CC1(NC(=O)COc2ccc3ccc(=O)oc3c2)CCCCC1 | 18.4 µM [rising, single point] | – | 35.4
27 | CC(C)CC(c1nnnn1C(C)(C)C)N1CCN(C2CCCC2)CC1 (stereo not drawn) | 5.8 µM [falling, partial curve] | 29.1 µM [falling, single point] | -46.2
28 | O=C(O)c1ccccc1-c1ccccc1C(=O)Nc1cccc(O)c1 | – | 3.66 µM [rising, single point] | 16.1
29 | CN(CC(=O)Nc1ccc(F)cc1)c1ccc(S(=O)(=O)N2CCCCC2)cc1[N+](=O)[O-] | – | – | -22.2
30 | Cc1ccc(-c2csc(NC(=O)CSc3nc(C)cs3)n2)cc1 | 7.31 µM [falling, partial curve] | – | -61.9
31 | C=CCn1c(CSCc2ccccc2)nnc1SCC(=O)NCc1ccccc1 | – | – | -8.62
32 | O=C(c1ccccc1F)N1CCN(C2CCC(c3ccccc3)CC2)CC1 (stereo not drawn) | 6.51 µM [falling, single point] | 6.51 µM [falling, single point] | -8.16
33 | COc1ccc(Cl)cc1NC(=O)Nc1cnccn1 | – | 0.58 µM [rising, single point] | -7.43
34 | CCCCN1CC(=O)N2[C@H]3c4cc(Br)ccc4OC[C@@H]3[C@H](C(=O)OCC)[C@]2(C)C1=O | – | – | 2.01
35 | Cc1ccc(N2C(N)=C(C#N)C(c3cccs3)C3=C2CC(C)(C)CC3=O)cc1 (stereo not drawn) | 2.91 µM [rising, partial curve] | 0.259 µM [rising, partial curve, poor fit] | –
36 | O=C(Cc1ccc([N+](=O)[O-])cc1)NNC(=O)c1cccs1 | – | – | 6.94
37 | CCN1CCCC(OC(=O)c2cc(-c3ccc(C)cc3)nc3ccccc23)C1 (stereo not drawn) | – | – | -11.5
38 | CNc1c(NS(=O)(=O)c2ccc(Cl)s2)c(=O)oc2ccccc12 | – | 6.51 µM [falling, single point] | -10.1
39 | Cc1ccc2cc(C#N)c(N3CCN(C(=O)c4ccccc4)CC3)nc2c1 | – | 10.3 µM [falling, single point] | -16.2
40 | COc1ccc(C2NN=C(c3c[nH]c4ccccc34)C2O)cc1 (stereo not drawn) | – | 29.1 µM [falling, single point] | –

Row | SMILES | AC50 [1] | AC50 [2] | cell number change [%]
41 | O=c1oc2ccccc2cc1N1CCOCC1 | 6.51 µM [rising, partial curve, poor fit] | 6.51 µM [rising, partial curve, poor fit] | –
42 | Cc1ccc(C(=O)C2=C(O)C(=O)N(Cc3ccco3)C2c2cccc(Cl)c2)o1 (stereo not drawn) | – | 6.51 µM [rising, single point] | 20.8
43 | CCn1c(Cc2ccccc2)nnc1SCC(=O)Nc1ccc2c(c1)OCCO2 | 3.26 µM [rising, single point] | – | –
44 | CSc1ccccc1NC(=O)CN1CCN(c2ccccn2)CC1 | – | – | -13.9
45 | CN(CC(=O)Nc1ccc(Cl)c(C(F)(F)F)c1)C(=O)C1CC(=O)N(CCc2ccccc2)C1 (stereo not drawn) | 2.31 µM [falling, full curve, poor fit] | 29.1 µM [falling, single point] | -50
46 | CCOc1ccccc1NC(=O)CSc1nncc2ccccc12 | – | 0.58 µM [rising, single point] | 8.73
47 | C[C@H](NC(=O)C1CC(=O)N(c2ccc3c(c2)OCO3)C1)C(=O)NC1CCCC1 (stereo partly drawn) | – | 29.1 µM [rising, single point] | 24.2
48 | COc1ccc(OC)c(S(=O)(=O)Nc2ccc3oc4c(c3c2)C(=O)CCC4)c1 | 3.66 µM [rising, partial curve, poor fit] | 0.116 µM [rising, full curve, poor fit] | –
49 | CC1=NN(Cc2ccccc2)C(=O)/C1=C/c1ccc(N(C)C)cc1 | – | – | -73.5
50 | O=C(COc1ccc(F)cc1F)Nc1cccnc1 | – | 0.00517 µM [rising, full curve, poor fit] | 20.7
51 | O=C(N/N=C/c1cc([N+](=O)[O-])ccc1O)NC12CC3CC(CC(C3)C1)C2 | – | 3.26 µM [falling, single point] | 3.37
52 | CC(=O)c1ccc(N2CCN(S(=O)(=O)c3ccc4ccccc4c3)CC2)cc1 | 4.61 µM [falling, single point] | 6.51 µM [falling, single point] | 3.62
53 | O=C(O)c1cc(O)c2c(c1)[C@H]([C@H]1c3cc(C(=O)O)cc(O)c3C(=O)c3c(O[C@@H]4O[C@H](CO)[C@@H](O)[C@H](O)[C@H]4O)cccc31)c1cccc(OC3O[C@H](CO)[C@@H](O)[C@H](O)[C@H]3O)c1C2=O (stereo partly drawn) | – | 14.6 µM [rising, partial curve] | 1.15
54 | COCC(=O)N1CCCC(C(=O)c2ccc(Oc3ccccc3)cc2)C1 (stereo not drawn) | – | 0.103 µM [falling, full curve, poor fit] | -1.55
55 | O=C(CSC(=S)N1CCCCC1)Nc1nc(-c2ccccc2)c(-c2ccccc2)o1 | – | 18.4 µM [falling, single point] | -12.8
56 | CC(C)CC(NC(=O)C(Cc1ccc(OCc2ccccc2)cc1)NC(=O)OC(C)(C)C)C(N)=O (stereo not drawn) (Boc-Tyr(Bn)-Leu-NH2; configuration not given here) | – | 29.1 µM [falling, single point] | 19.1
57 | Cc1ccc(-n2nc(C)c3c2OC(N)=C(C#N)C3c2ccc(F)cc2)cc1 (stereo not drawn) | 0.0103 µM [falling, full curve] | 0.0731 µM [falling, full curve] | -33.9
58 | O=C(c1ccc(Cl)c(S(=O)(=O)N2CCOCC2)c1)N1CCN(c2ccccn2)CC1 | – | 29.1 µM [falling, single point] | -19
59 | O=C(Cc1ccc(S(=O)(=O)N2CCOCC2)s1)Nc1ccccc1N1CCOCC1 | 0.116 µM [rising, full curve, poor fit] | – | -5.04
